From patent US20240092844
Where a protein sequence is shown, tags need not be part of it.

Assays:
Assay in all cases: activity in cells
[1] = tested on: T1, FOXR2-Tet3 RTF (Homo sapiens); settings: activates as well or better than rTetR-VP64; protein in cells; protein details: forkhead DBD replaced by ZF array; only the site is given
T1 sequence: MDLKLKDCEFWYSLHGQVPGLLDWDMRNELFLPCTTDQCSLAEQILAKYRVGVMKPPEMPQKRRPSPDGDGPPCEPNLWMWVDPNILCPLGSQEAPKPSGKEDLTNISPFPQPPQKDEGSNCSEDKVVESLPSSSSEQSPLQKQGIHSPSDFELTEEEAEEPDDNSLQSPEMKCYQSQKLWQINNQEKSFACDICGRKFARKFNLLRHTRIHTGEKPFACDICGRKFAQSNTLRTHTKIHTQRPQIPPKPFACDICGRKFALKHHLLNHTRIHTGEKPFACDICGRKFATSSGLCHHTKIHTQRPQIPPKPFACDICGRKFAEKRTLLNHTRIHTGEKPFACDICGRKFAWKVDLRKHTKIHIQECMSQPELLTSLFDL

[2] = tested on: T2, ZNF324-Tet3 RTF (Homo sapiens); settings: repression similar to ZIM3-Tet3; protein in cells; only the site is given
T2 sequence: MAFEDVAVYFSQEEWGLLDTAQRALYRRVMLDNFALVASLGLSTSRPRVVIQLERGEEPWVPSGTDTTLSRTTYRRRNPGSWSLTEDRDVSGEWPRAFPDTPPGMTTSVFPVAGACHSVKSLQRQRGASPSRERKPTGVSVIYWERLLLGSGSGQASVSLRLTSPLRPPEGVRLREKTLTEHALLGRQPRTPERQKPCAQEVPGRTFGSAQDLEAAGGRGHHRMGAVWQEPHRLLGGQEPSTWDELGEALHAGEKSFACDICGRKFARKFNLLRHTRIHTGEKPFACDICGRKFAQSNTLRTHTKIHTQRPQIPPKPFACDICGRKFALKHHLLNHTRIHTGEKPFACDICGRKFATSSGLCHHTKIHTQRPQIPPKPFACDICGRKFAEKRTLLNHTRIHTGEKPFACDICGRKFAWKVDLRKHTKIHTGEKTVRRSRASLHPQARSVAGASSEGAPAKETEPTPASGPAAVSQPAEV

[3] = tested on: T3, KLF7-Tet3 RTF (Homo sapiens); settings: activates as well or better than rTetR-VP64; protein in cells; only the site is given
T3 sequence: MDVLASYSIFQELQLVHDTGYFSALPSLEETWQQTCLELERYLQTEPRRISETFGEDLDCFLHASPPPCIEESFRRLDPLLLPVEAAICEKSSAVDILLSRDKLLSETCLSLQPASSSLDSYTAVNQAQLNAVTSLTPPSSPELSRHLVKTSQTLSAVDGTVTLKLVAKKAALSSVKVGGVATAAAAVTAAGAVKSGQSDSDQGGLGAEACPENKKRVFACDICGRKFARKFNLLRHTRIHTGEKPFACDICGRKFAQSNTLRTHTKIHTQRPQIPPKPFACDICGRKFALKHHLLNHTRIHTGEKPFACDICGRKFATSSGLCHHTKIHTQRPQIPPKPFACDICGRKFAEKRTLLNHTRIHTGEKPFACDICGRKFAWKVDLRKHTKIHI

[4] = tested on: T4, ZXDC-Tet3 RTF (Homo sapiens); settings: activates as well or better than rTetR-VP64; protein in cells; only the site is given
T4 sequence: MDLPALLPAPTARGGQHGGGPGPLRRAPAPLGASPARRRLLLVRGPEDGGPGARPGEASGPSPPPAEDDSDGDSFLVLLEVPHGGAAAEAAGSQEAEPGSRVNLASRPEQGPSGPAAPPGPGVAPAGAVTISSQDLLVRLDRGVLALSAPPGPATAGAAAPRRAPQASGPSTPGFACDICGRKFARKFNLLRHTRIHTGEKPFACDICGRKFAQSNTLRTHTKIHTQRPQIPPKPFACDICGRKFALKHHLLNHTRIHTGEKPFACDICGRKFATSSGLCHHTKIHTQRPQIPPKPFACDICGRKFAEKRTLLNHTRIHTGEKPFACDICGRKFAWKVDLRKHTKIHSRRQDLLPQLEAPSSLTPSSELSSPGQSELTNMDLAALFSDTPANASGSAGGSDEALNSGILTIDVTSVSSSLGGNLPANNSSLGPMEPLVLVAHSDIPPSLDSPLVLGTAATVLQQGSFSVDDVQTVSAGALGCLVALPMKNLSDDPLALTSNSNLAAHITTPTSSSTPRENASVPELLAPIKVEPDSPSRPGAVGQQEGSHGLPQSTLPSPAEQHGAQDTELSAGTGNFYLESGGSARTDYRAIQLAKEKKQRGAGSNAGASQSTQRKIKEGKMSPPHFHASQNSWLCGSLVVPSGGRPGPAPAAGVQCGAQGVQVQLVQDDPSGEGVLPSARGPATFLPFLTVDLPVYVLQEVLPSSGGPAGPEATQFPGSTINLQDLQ

[5] = tested on: T5, KLF6-Tet3 RTF (Homo sapiens); settings: GFP reporter activation in HEK293T as well or better than rTetR-VP64; protein in cells; only the site is given
T5 sequence: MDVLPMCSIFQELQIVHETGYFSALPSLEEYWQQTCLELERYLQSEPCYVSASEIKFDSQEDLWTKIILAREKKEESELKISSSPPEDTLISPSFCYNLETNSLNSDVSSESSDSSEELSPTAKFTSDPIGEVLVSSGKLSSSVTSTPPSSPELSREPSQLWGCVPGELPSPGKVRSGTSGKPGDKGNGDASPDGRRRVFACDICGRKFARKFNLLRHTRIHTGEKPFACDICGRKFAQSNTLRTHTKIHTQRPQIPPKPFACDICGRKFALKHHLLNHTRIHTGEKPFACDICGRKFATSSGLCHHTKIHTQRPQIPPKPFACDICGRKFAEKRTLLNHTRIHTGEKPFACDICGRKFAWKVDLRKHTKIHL

Measured: activity on this sequence

TCTCCCTATCAGTGATAGAGA (double strand) [Tet3 rev target]
active: [1] | [2] | [3] | [4] | [5]
